Experimental findings from publication PMC11997541 (Journal of Peptide Science, 2025) are described below.

Some peptides are written in HELM: one residue between dots, names in brackets for other building blocks, links after the first $.

The series can be described thus: general procedure: Fmoc solid-phase peptide synthesis; Rink Amide MBHA resin, loading 0.65 mmol/g; TBEC/Oxyma Pure. Particulars: whole synthesis, analytical HPLC-MS (Phenomenex Kinetex XB-C18, Agilent 1260 Infinity II, 6130 quadrupole LC/MS).
On to “PEPTIDE1{[Laur].[D-His*].A.[dA].[D-His*].[am]}$$$$V2.0”, for which the “final LC-MS purity” value was determined as 95%.

Take “PEPTIDE1{[ac].[D-His*].A.[dA].[D-His*].[Aun].[am]}$$$$V2.0”: the “final LC-MS purity” value was 99%. In the case of “PEPTIDE1{[Palm].H.A.[dA].H.[am]}$$$$V2.0” it was 97%; in that of “PEPTIDE1{[Laur].H.A.[dA].H.[am]}$$$$V2.0”, 96%. The value for “PEPTIDE1{[Palm].[D-His*].A.[dA].[D-His*].[am]}$$$$V2.0” was 95%. The value for “PEPTIDE1{[Palm].[L-His*].A.[dA].[L-His*].[am]}$$$$V2.0” was 95%; that for “PEPTIDE1{[Laur].[L-His*].A.[dA].[L-His*].[am]}$$$$V2.0” was 96%; that for “PEPTIDE1{[ac].H.A.[dA].H.[Aun].[am]}$$$$V2.0” was 99%. As to “PEPTIDE1{[ac].[L-His*].A.[dA].[L-His*].[Aun].[am]}$$$$V2.0”, the “final LC-MS purity” value is 99%.
